{"source": "PubChem BioAssay AID1671195 (Yale University, 2021)", "purpose": "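Regulators of LDL receptor activity judged by labelled LDL uptake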 (primary screen)", "cells": "human Huh7 hepatoma cells", "reagents": "siRNA pool against human genes, 18 nM", "duration": "about 2 to 2.5 days of knockdown, then 8 h LDL uptake", "challenge": "DiI-labelled LDL at 30 µg/ml for 8 h, in lipoprotein-deficient serum medium", "detection": "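Per-cell DiI-LDL intensity by automated imaging; well means scaled to the plate median and given as a robust z-score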", "direction": "robust z-score: higher = more LDL uptake after knockdown", "hit rule": "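a gene counts as active if at least two replicate z-scores exceed ±2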", "note": "This is a random part of about 22,000 reagents tested. In the full data, about 1,510 (6.9%) got an active call. 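Active includes knockdowns raising or lowering LDL uptake; positive z-scores mean more uptake, negative mean less.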 A number with no mark means an inactive call. The numbers tell different reagents against one gene apart. Reagent sequences are not shown."}
{"Target gene": "SAMHD1", "reagent no.": 1, "robust z-score, replicate 1": -0.75, "robust z-score, replicate 2": -0.279, "robust z-score, replicate 3": -0.666}
{"Target gene": "SIDT2 (SID1 transmembrane family member 2)", "reagent no.": 1, "robust z-score, replicate 1": 0.216, "robust z-score, replicate 2": -0.997, "robust z-score, replicate 3": 0.399}
{"Target gene": "SLC25A38P1 (SLC25A38 pseudogene 1)", "reagent no.": 1, "robust z-score, replicate 1": 0.324, "robust z-score, replicate 2": 0.0435, "robust z-score, replicate 3": 0.227}
{"Target gene": "GPR34 (G protein-coupled receptor 34)", "reagent no.": 1, "robust z-score, replicate 1": 0.0594, "robust z-score, replicate 2": -0.526, "robust z-score, replicate 3": -0.496}
{"Target gene": "LOC151760 (putative uncharacterized protein LOC151760)", "reagent no.": 1, "robust z-score, replicate 1": -0.0549, "robust z-score, replicate 2": 0.15, "robust z-score, replicate 3": -0.437}
{"Target gene": "POM121L2 (POM121 transmembrane nucleoporin like 2)", "reagent no.": 1, "robust z-score, replicate 1": 0.782, "robust z-score, replicate 2": 0.21, "robust z-score, replicate 3": 0.393}
{"Target gene": "POM121L2 (POM121 transmembrane nucleoporin like 2)", "reagent no.": 2, "robust z-score, replicate 1": 0.974, "robust z-score, replicate 2": -0.646, "robust z-score, replicate 3": 0.145}
{"Target gene": "LINC00661 (long independently transcribed non-coding RNA 661)", "reagent no.": 1, "robust z-score, replicate 1": -0.374, "robust z-score, replicate 2": -1.24, "robust z-score, replicate 3": -1.22}
{"Target gene": "ZNF502 (zinc finger protein 502)", "reagent no.": 1, "robust z-score, replicate 1": -0.265, "robust z-score, replicate 2": -0.301, "robust z-score, replicate 3": 0.224}
{"Target gene": "SNAP25 (synaptosome associated protein 25)", "reagent no.": 1, "robust z-score, replicate 1": 0.424, "robust z-score, replicate 2": 1.04, "robust z-score, replicate 3": 0.996}
{"Target gene": "TCF7 (transcription factor 7)", "reagent no.": 1, "robust z-score, replicate 1": 0.418, "robust z-score, replicate 2": 1.97, "robust z-score, replicate 3": 1.3}
{"Target gene": "EXOSC8 (exosome component 8)", "reagent no.": 1, "robust z-score, replicate 1": 1.37, "robust z-score, replicate 2": 2.34, "robust z-score, replicate 3": 1.06}

Reprinted from above for reference:
{"Target gene": "TCF7 (transcription factor 7)", "reagent no.": 1, "robust z-score, replicate 1": 0.418, "robust z-score, replicate 2": 1.97, "robust z-score, replicate 3": 1.3}
{"Target gene": "EXOSC8 (exosome component 8)", "reagent no.": 1, "robust z-score, replicate 1": 1.37, "robust z-score, replicate 2": 2.34, "robust z-score, replicate 3": 1.06}
